Data published in PubChem BioAssay AID2551 (National Center for Advancing Translational Sciences (NCATS), 2010).
The whole screen tested about 310,000 compounds, of which about 17,000 (5.5%) were called active. Inconclusive means that the source gave no clear call. Such entries were picked first, then a sample of the others. Calls come from the whole dose curve; as a rule, active = well fitted inhibition curve with a large enough effect; inconclusive = small, poorly fitted or top-dose-only effect, or effect the other way; inactive = no such curve, though single readings can be large or run the other way. Potencies beside an inconclusive call are fits to weak or partial responses and may not hold up.

By UniProt entry, the sequences of proteins in these tests, tags left out. Where a name states a change or a piece, a line headed by the entry shows the natural chain unless it says otherwise.
UniProt P51450: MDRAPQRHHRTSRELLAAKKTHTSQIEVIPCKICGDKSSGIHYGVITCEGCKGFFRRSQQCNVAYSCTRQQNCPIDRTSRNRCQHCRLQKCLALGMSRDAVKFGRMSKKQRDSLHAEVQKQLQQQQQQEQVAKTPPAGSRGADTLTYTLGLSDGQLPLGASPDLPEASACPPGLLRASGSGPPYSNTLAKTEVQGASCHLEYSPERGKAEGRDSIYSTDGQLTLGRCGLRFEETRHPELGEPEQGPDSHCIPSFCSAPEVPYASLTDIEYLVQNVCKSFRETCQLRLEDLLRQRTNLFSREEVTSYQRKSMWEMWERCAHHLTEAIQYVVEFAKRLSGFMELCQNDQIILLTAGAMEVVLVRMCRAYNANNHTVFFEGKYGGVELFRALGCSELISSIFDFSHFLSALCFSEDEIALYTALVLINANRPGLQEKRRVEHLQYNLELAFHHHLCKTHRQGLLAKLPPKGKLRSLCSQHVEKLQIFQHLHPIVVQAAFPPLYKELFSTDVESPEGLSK

Molecular target: Nuclear receptor ROR-gamma (Mus musculus) (UniProt P51450)
Test: qHTS for inhibitors of ROR gamma transcriptional activity; note: nearly all actives have a fitted effect of over 60% in size
Conditions: Drosophila S2 Gal4-RORgamma UAS-luciferase reporter, 20 h; activity change, negative = inhibition: at 53.6 µM (top of the series)
How it was run: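 Using a luciferase readout, inhibitors were identified by reduced reporter activity in Drosophila cells coexpressing a copper-inducible Gal4–ROR gamma fusion and UAS-driven Photinus luciferase, incubated 20 hr after 700 uM copper sulfate.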
% is set by controls: 0 for no effect and ±100 for the full control effect; potency is the fitted concentration of half-maximal effect.

**Q.** With `COC(=O)CSc1nnc2n1C(C)(C)Cc1ccccc1-2` as the compound, how does the Potency read?
**A.** inactive

**Q.** For `COc1ccc(OC)c(S(=O)(=O)NCc2ccccn2)c1`, which Potency is on record?
**A.** inconclusive: 6.31 µM [inhibitor, single point]

**Q.** How did the Potency turn out when `COc1ccc(Nc2cc(Nc3cc(OC)c(OC)c(OC)c3)ncn2)cc1` was run?
**A.** inactive

**Q.** With `O=C(Nc1ccc(NC(=O)C2CC2)nc1)c1cnccn1` as the compound, how does the Potency read?
**A.** inactive

**Q.** How did the Potency turn out when `COc1ccc(S(=O)(=O)N(C)CC(=O)NC2CC2)cc1OC` was run?
**A.** inconclusive: 20 µM [inhibitor, single point]

**Q.** How did the Potency turn out when `COc1cc(SC#N)ccc1N=Cc1c(C)[nH]n(-c2ccc(C)cc2)c1=O` was run?
**A.** active: 6.31 µM

**Q.** For `Cc1ccccc1NC(=O)CCn1c(=O)oc2ccccc21`, which Potency is on record?
**A.** inconclusive: 0.01 µM [activator, full curve, poor fit]

**Q.** For `CCOc1ccccc1Nc1ncccc1C(=O)O`, which Potency is on record?
**A.** inconclusive: 31.6 µM [activator, single point]

**Q.** `Cn1cc(Br)c(C(=O)NC(=S)N2CCN(c3ccccn3)CC2)n1` was tested. Which Potency did it give?
**A.** active: 3.98 µM

**Q.** How did the Potency turn out when `COc1ccc(/C=N/Nc2ncc(C(F)(F)F)cc2Cl)c(OC)c1OC` was run?
**A.** active: 2.82 µM

**Q.** Which Potency does the source give for `Cc1ccc(Nc2cc(C)nc3ncnn23)c(Cl)c1` here?
**A.** inconclusive: 15.8 µM [inhibitor, single point]

**Q.** With `CN1CCN(c2ccc(NC(=O)COc3cccc4ccccc34)cc2)CC1` as the compound, how does the Potency read?
**A.** inconclusive: 35.5 µM [inhibitor, single point]

**Q.** With `CC(C)(C)c1csc(NC2=NS(=O)(=O)c3ccccc32)n1` as the compound, how does the Potency read?
**A.** inconclusive: 35.5 µM [inhibitor, single point]

**Q.** For `Fc1ccc(-c2nc3ccccc3c3nc4ccccc4n23)cc1`, which Potency is on record?
**A.** inconclusive: 35.5 µM [inhibitor, single point]

**Q.** How did the Potency turn out when `Cc1c(O)ccc2c(CN3CCOCC3)cc(=O)oc12` was run?
**A.** inactive

**Q.** For `CN1CCN(C(=S)NC(=O)c2ccccc2Cl)CC1`, which Potency is on record?
**A.** active: 14.1 µM

**Q.** `Cc1cccc(NC(=O)Nc2cccc(C)n2)n1` was tested. Which Potency did it give?
**A.** inconclusive: 28.2 µM [activator, single point]

**Q.** With `O=C(CN1CCN(CC(=O)Nc2ccccn2)CC1)Nc1ccccn1` as the compound, how does the Potency read?
**A.** inconclusive: 35.5 µM [activator, single point]

**Q.** For `O=[N+]([O-])c1ccc(Oc2ccc(S(=O)(=O)N3CCOCC3)cc2)cc1`, which Potency is on record?
**A.** inconclusive: 17.8 µM [activator, single point]

**Q.** Which Potency does the source give for `CCN(CC)C(=O)c1ccc(COc2ccc(Cl)c(C)c2)o1` here?
**A.** inconclusive: 4.47 µM [activator, full curve, poor fit]

**Q.** For `O=C(Nc1cccc(S(=O)(=O)Nc2ccccc2Cl)c1)c1ccc(Cl)nc1`, which Potency is on record?
**A.** inconclusive: 6.31 µM [inhibitor, single point]

**Q.** With `CCn1nccc1C(=O)Nc1ccc(C(=O)OC(C)C)cc1` as the compound, how does the Potency read?
**A.** inconclusive: 7.08 µM [activator, partial curve]

**Q.** `Cc1ccc2c(C)c(C(=O)N(C)Cc3nccn3C)oc2c1C` was tested. Which Potency did it give?
**A.** inconclusive: 17.8 µM [inhibitor, partial curve, poor fit]

**Q.** How did the Potency turn out when `CC(=O)c1ccc(N2CCN(C(=S)Nc3ccc(Oc4ccccc4)cc3)CC2)cc1` was run?
**A.** active: 3.16 µM

**Q.** How did the Potency turn out when `COc1cccc(Cn2c(=O)c(C)nc3cnc(N(C)C)nc32)c1` was run?
**A.** inactive

**Q.** How did the Potency turn out when `Cc1c(C(=O)NCc2ccco2)oc2ccccc12` was run?
**A.** inconclusive: 35.5 µM [activator, single point]

**Q.** `CCOC(=O)C1=C(c2ccccc2)NC(=O)NC1c1cc(Cl)c(O)c(OC)c1` (stereo unspecified) was tested. Which Potency did it give?
**A.** inconclusive: 35.5 µM [activator, single point]

**Q.** For `CCN(CC)C(=O)c1c2c(nc3ccccc13)-c1ccccc1CC2`, which Potency is on record?
**A.** inconclusive: 0.501 µM [inhibitor, single point]

**Q.** With `COc1cccc(CNC(=O)Cc2ccc(Br)cc2)c1` as the compound, how does the Potency read?
**A.** inconclusive: 12.6 µM [activator, partial curve, poor fit]

**Q.** For `Cc1cc(=O)oc2cc(Oc3ccc([N+](=O)[O-])cc3[N+](=O)[O-])ccc12`, which Potency is on record?
**A.** active: 11.2 µM

**Q.** For `CCC(NC(=O)C1CCC1)c1ccccc1` (stereo unspecified), which Potency is on record?
**A.** inconclusive: 1.12 µM [activator, partial curve]

**Q.** `COCc1[nH]nc2c1C(c1ccnc3ccccc13)C(C#N)=C(N)O2` (stereo unspecified) was tested. Which Potency did it give?
**A.** inactive

**Q.** Which Potency does the source give for `C=C(C)COc1ccc2c(C)c(CC(=O)OC)c(=O)oc2c1C` here?
**A.** inconclusive: 35.5 µM [inhibitor, single point]

**Q.** For `Cn1cc(C(C[N+](=O)[O-])c2ccccc2)c2ccccc21` (stereo unspecified), which Potency is on record?
**A.** inconclusive: 17.8 µM [activator, single point]

**Q.** How did the Potency turn out when `CC(=O)N1c2ccccc2C2(O)N=C(C)SC12` (stereo unspecified) was run?
**A.** active: 7.94 µM

**Q.** `CCN(CC)c1ccc(NC(=O)Nc2ccc(C(C)=O)cc2)cc1` was tested. Which Potency did it give?
**A.** inconclusive: 5.01 µM [activator, partial curve, poor fit]

**Q.** Which activity change, negative = inhibition does the source give for `COc1ccc(/C=C/C(=O)NC(=S)NNC(=O)c2cccnc2)cc1` here?
**A.** inactive: -2.93% [at 10 µM]

**Q.** With `COc1ccc(C(=O)Nc2cccc(NC(=O)c3ccc(OC)c(OC)c3)n2)cc1OC` as the compound, how does the Potency read?
**A.** inconclusive: 14.1 µM [activator, single point]

**Q.** `COc1ccc(CCNc2oc(-c3ccc(OC)c(OC)c3)nc2P(=O)(OC)OC)cc1OC` was tested. Which Potency did it give?
**A.** inactive

**Q.** For `Cc1ccc(OCc2nnc(SCc3cc(=O)[nH]c4ccccc34)n2-c2ccccc2)cc1`, which Potency is on record?
**A.** inconclusive: 17.8 µM [activator, single point]

**Q.** With `O=C(COc1ccc(Cl)cc1)N1CCN(c2ccc([N+](=O)[O-])c(N3CCOCC3)c2)CC1` as the compound, how does the Potency read?
**A.** inconclusive: 31.6 µM [activator, single point]

**Q.** With `CN(C)S(=O)(=O)c1cccc(NC(=O)c2ccc3nccnc3c2)c1` as the compound, how does the Potency read?
**A.** inconclusive: 5.01 µM [activator, single point]

**Q.** Which Potency does the source give for `O=C(NCc1ccccc1)Nc1cccn(Cc2cccc(F)c2)c1=O` here?
**A.** inconclusive: 12.6 µM [activator, partial curve]

**Q.** With `CCOc1ccc(CC(=O)N2N=C(C)CC2(O)C(F)(F)F)cc1` (stereo unspecified) as the compound, how does the Potency read?
**A.** active: 1.58 µM

**Q.** For `CC(=O)NC(=C(Cl)Cl)S(=O)(=O)c1ccccc1`, which Potency is on record?
**A.** active: 12.6 µM

**Q.** For `COc1ccc(N2C(=O)c3ccccc3NC23CCCCC3)cc1`, which Potency is on record?
**A.** inconclusive: 0.447 µM [activator, full curve]
